Experimental data as given in patent publication US11980668 (dated 2024).

Test: general procedure: solution-phase peptide synthesis; HATU/DIPEA; PyAOP/DIPEA; HOAt or HOBt with PNP carbonate

Row | Substance | step yield (late stage modification step) | conjugation yield (conjugation step)
1 | 4-((5S,8S,11S,12R)-11-((S)-sec-butyl)-12-(2-((S)-2-((1R,2R)-3-(((1S,2R)-1-hydroxy-1-phenylpropan-2-yl)amino)-1-methoxy-2-methyl-3-oxopropyl)pyrrolidin-1-yl)-2-oxoethyl)-5,8-diisopropyl-4,10-dimethyl-3,6,9-trioxo-2,13-dioxa-4,7,10-triazatetradecyl)-2-(3-(3-(2-(2-((1-(3-(2-((1,2-dimethylhydrazinyl)methyl)-1H-pyrrolo[2,3-b]pyridin-1-yl)propanoyl)piperidin-4-yl)amino)ethoxy)ethoxy)propanamido)propanamido)phenyl hydrogen sulfate | 54% | 
2 | 4-((5S,8S,11S,12R)-11-((S)-sec-butyl)-12-(2-((S)-2-((1R,2R)-3-(((1S,2R)-1-hydroxy-1-phenylpropan-2-yl)amino)-1-methoxy-2-methyl-3-oxopropyl)pyrrolidin-1-yl)-2-oxoethyl)-5,8-diisopropyl-4,10-dimethyl-3,6,9-trioxo-2,13-dioxa-4,7,10-triazatetradecyl)-3-(3-(3-(2-(2-((1-(3-(2-((1,2-dimethylhydrazinyl)methyl)-1H-pyrrolo[2,3-b]pyridin-1-yl)propanoyl)piperidin-4-yl)amino)ethoxy)ethoxy)propanamido)propanamido)phenyl hydrogen sulfate |  | 68%
